From the supplement of paper PMC7661543
± gives the standard deviation of the averaged measurements. The effect of the compound repeats well; differences between the knockouts mostly do not.

Tested on: ZR-75-1
Experiment: relative cell number vs DMSO control (72 h) (% of DMSO); higher = less growth inhibition (more cells)
Protocol: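 QMAP-Seq: a pool of 5 breast cancer cell lines (ZR-75-1, SKBR3, HCC-38, MDA-MB-231, BT-20), each carrying 12 doxycycline-inducible Cas9 sgRNA perturbations (11 knockouts plus non-targeting sgNT), was treated with compounds for 72 h at four 10-fold doses (10 nM-10 uM or 1 nM-1 uM range). Barcodes were amplified and sequenced, and cell number was interpolated from 293T spike-in standard curves. The result is expressed as % of the median of DMSO wells. Two biological replicates.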

[1] = sgRNA knockout: sgATF3, 1000 nM
[2] = sgRNA knockout: sgATF3, 10000 nM
[3] = sgRNA knockout: sgATF4, 1000 nM
[4] = sgRNA knockout: sgATF4, 10000 nM
[5] = sgRNA knockout: sgATF6, 1000 nM
[6] = sgRNA knockout: sgATF6, 10000 nM
[7] = sgRNA knockout: sgATG7, 1000 nM
[8] = sgRNA knockout: sgATG7, 10000 nM
[9] = sgRNA knockout: sgERN1, 1000 nM
[10] = sgRNA knockout: sgERN1, 10000 nM
[11] = sgRNA knockout: sgHSF2, 1000 nM
[12] = sgRNA knockout: sgHSF2, 10000 nM
[13] = sgRNA knockout: sgNFE2L2, 10 nM
[14] = sgRNA knockout: sgNFE2L2, 100 nM
[15] = sgRNA knockout: sgNFE2L2, 1000 nM
[16] = sgRNA knockout: sgNFE2L2, 10000 nM
[17] = sgRNA knockout: sgSLC35F2, 10 nM
[18] = sgRNA knockout: sgSLC35F2, 100 nM
[19] = sgRNA knockout: sgSLC35F2, 1000 nM
[20] = sgRNA knockout: sgSLC35F2, 10000 nM
[21] = sgRNA knockout: sgXBP1, 1000 nM
[22] = sgRNA knockout: sgXBP1, 10000 nM

Row | Compound | relative cell number (sgRNA knockout: sgATF3, 10 nM) | relative cell number (sgRNA knockout: sgATF3, 100 nM) | relative cell number [1] | relative cell number [2] | relative cell number (sgRNA knockout: sgATF4, 10 nM) | relative cell number (sgRNA knockout: sgATF4, 100 nM) | relative cell number [3] | relative cell number [4] | relative cell number (sgRNA knockout: sgATF6, 10 nM) | relative cell number (sgRNA knockout: sgATF6, 100 nM) | relative cell number [5] | relative cell number [6] | relative cell number (sgRNA knockout: sgATG7, 10 nM) | relative cell number (sgRNA knockout: sgATG7, 100 nM) | relative cell number [7] | relative cell number [8] | relative cell number (sgRNA knockout: sgERN1, 10 nM) | relative cell number (sgRNA knockout: sgERN1, 100 nM) | relative cell number [9] | relative cell number [10] | relative cell number (sgRNA knockout: sgHSF2, 10 nM) | relative cell number (sgRNA knockout: sgHSF2, 100 nM) | relative cell number [11] | relative cell number [12] | relative cell number [13] | relative cell number [14] | relative cell number [15] | relative cell number [16] | relative cell number [17] | relative cell number [18] | relative cell number [19] | relative cell number [20] | relative cell number (sgRNA knockout: sgXBP1, 10 nM) | relative cell number (sgRNA knockout: sgXBP1, 100 nM) | relative cell number [21] | relative cell number [22]
1 | N[C@@H](CC(=O)N1CCn2c(nnc2C(F)(F)F)C1)Cc1cc(F)c(F)cc1F [Sitagliptin] | 108 ± 9 | 140 ± 48 | 115 ± 28 | 101 ± 14 | 115 ± 68 | 114 ± 2.6 | 102 ± 16 | 77.7 ± 6.9 | 92.2 ± 11 | 143 ± 62 | 67.5 ± 1.8 | 98.6 ± 14 | 98.1 ± 23 | 93.7 ± 22 | 116 ± 72 | 70.4 ± 14 | 87.5 ± 1.7 | 96.9 ± 9 | 97.6 ± 30 | 89 ± 18 | 112 ± 22 | 98.6 ± 16 | 133 ± 14 | 134.3 ± 0.98 | 105 ± 22 | 112 ± 26 | 101 ± 2.1 | 94.3 ± 65 | 106 ± 28 | 85.6 ± 61 | 90 ± 26 | 125 ± 2.4 | 99.2 ± 16 | 113 ± 32 | 108 ± 1.4 | 96.4 ± 13
2 | CC(C)CC(=O)Nc1n[nH]c2c1CN(C(=O)C1CCN(C)CC1)C2(C)C | 102 ± 46 | 41.1 ± 6.3 | 47.5 ± 36 | 22.1 ± 3.1 | 134 ± 20 | 54.1 ± 4 | 37.1 ± 14 | 12.7 ± 6.7 | 71.8 ± 28 | 62.6 ± 15 | 23.6 ± 3.9 | 15.2 ± 2.9 | 91.1 ± 45 | 44.5 ± 2.5 | 45.5 ± 5.2 | 17.2 ± 3.2 | 98 ± 10 | 54.9 ± 5.6 | 32.8 ± 22 | 22.9 ± 4.1 | 90.33 ± 0.71 | 48.8 ± 10 | 36.5 ± 11 | 20.7 ± 4 | 98.6 ± 13 | 64.5 ± 6.4 | 42.8 ± 22 | 16.3 ± 8.5 | 102 ± 44 | 76.1 ± 1.9 | 34.7 ± 4.6 | 15 ± 10 | 88.3 ± 14 | 59.7 ± 5.2 | 38.9 ± 14 | 15.1 ± 1.2
3 | Fc1ccc(CNc2ncnc3ccc(F)cc23)cc1 [Spautin1] | 119 ± 13 | 113 ± 40 | 118 ± 28 | 61.9 ± 11 | 103 ± 35 | 98.4 ± 7.5 | 91.2 ± 26 | 55.4 ± 5.7 | 173 ± 80 | 85.3 ± 39 | 118 ± 1.4 | 45.3 ± 14 | 101 ± 46 | 99.5 ± 12 | 87.2 ± 26 | 62.9 ± 22 | 88.7 ± 18 | 91.5 ± 26 | 74.9 ± 10 | 62.1 ± 18 | 111 ± 17 | 112 ± 3.5 | 102 ± 2.4 | 52.5 ± 11 | 117 ± 16 | 105 ± 31 | 91.1 ± 8.9 | 63.1 ± 5.8 | 93.3 ± 69 | 82.8 ± 9.6 | 81.4 ± 4.5 | 35.2 ± 1.3 | 98.85 ± 0.32 | 91.1 ± 2.6 | 92.7 ± 27 | 62 ± 13
4 | Cc1ccc(C(=O)N(CCCN)[C@@H](c2oc3cc(Cl)ccc3c(=O)c2Cc2ccccc2)C(C)C)cc1 | 30.7 ± 7.3 | 26.5 ± 0.8 | 40.6 ± 1.4 | 4.93 ± 0.52 | 42.5 ± 12 | 40.4 ± 11 | 36.4 ± 5.7 | 3.98 ± 1.5 | 32.8 ± 11 | 33.7 ± 9.5 | 32.5 ± 2.7 | 3.99 ± 0.1 | 21.4 ± 14 | 28.6 ± 1.4 | 41.8 ± 1.4 | 2.15 ± 0.18 | 35.6 ± 7.7 | 32.6 ± 0.78 | 39.2 ± 6 | 3.19 ± 1.2 | 30.4 ± 7 | 24.3 ± 1.7 | 34.9 ± 1.4 | 3 ± 0.047 | 25.8 ± 2.1 | 25.3 ± 1.9 | 31.9 ± 2.8 | 5.45 ± 1.1 | 16.5 ± 1.6 | 19.69 ± 0.18 | 35.7 ± 27 | 2.17 ± 0.81 | 30.4 ± 5.8 | 27.2 ± 3.5 | 33.5 ± 0.54 | 2.73 ± 0.68
5 | c1ccc2c(Oc3nc(Nc4ccc(N5CCOCC5)cc4)c4ncn(C5CCCCC5)c4n3)cccc2c1 [Purmorphamine] | 125 ± 8.4 | 68.4 ± 3.4 | 105 ± 49 | 46.9 ± 16 | 113 ± 29 | 106 ± 12 | 84.1 ± 15 | 39.2 ± 21 | 60.2 ± 14 | 85.9 ± 32 | 68.6 ± 16 | 56.1 ± 2.7 | 103 ± 19 | 91.9 ± 11 | 100 ± 6.5 | 46.2 ± 1.2 | 95.4 ± 15 | 89.1 ± 1.8 | 107 ± 27 | 48.6 ± 1.6 | 110 ± 19 | 83.5 ± 25 | 93.1 ± 1.8 | 51.7 ± 3.2 | 113 ± 9 | 107 ± 38 | 106 ± 20 | 61.6 ± 3.3 | 92.9 ± 30 | 55.827 ± 0.013 | 88 ± 58 | 38.5 ± 13 | 106 ± 19 | 105 ± 36 | 110 ± 17 | 51.2 ± 2
